Data from patent US20140024653A1, “COMPOSITIONS AND METHODS FOR TREATING CANCER USING PI3K INHIBITOR AND MEK INHIBITOR” (priority 2011, published 2014).
Like-named read-outs stand apart in the source and are kept apart here. Some entries share one result that the patent states for a list of compounds.

Assays:
[1] = test system: human colon carcinoma HCT 116
[2] = test system: human primary colon tumors CR-LRB-009C; test: antitumor activity against subcutaneous CR-LRB-009C xenografts; assay type: in vivo
Procedure: The human primary colon carcinoma CR-LRB-009C tumor model was established by implanting (SC) small tumor fragments and was maintained in SCID female mice using serial passages.
(§1) Treatments were administered on measurable tumors. […] Mice were checked daily, and adverse clinical reactions noted.
(§2) Animal body weights included the tumor weight.
(§3) The primary efficacy end points are ΔT/ΔC, percent median regression, partial and complete regressions (PR and CR). Statistical analyses were performed on SAS system release 8.2 for SUN4 via Everstat V5 software and SAS 9.2 software. A probability less than 5% (p<0.05) was considered as significant.

[3] = test system: human primary colon tumors CR-LRB-013P; test: antitumor activity against subcutaneous CR-LRB-013P xenografts; assay type: in vivo; details: (2a) 75 mg/kg PO daily days 33-50
Procedure: The human primary colon carcinoma CR-LRB-013P tumor model was established by implanting (SC) small tumor fragments and was maintained in SCID female mice using serial passages.
as §1, §2, §3

O=C(NC[C@H](O)CO)c1ccncc1Nc1ccc(I)cc1F [Compound (1), N—((S)-2,3-dihydroxypropyl)-3-(2-fluoro-4-iodo-phenylamino)isonicotinamide]
> 40%: Median ΔT/ΔC in % day 18 ([1]; study 1, (1) 5 mg/kg PO daily days 11-18, 5 mg/kg) | Median ΔT/ΔC in % day 20 ([1]; study 3, (1) 10 mg/kg PO daily days 11-20, 10 mg/kg) | Median ΔT/ΔC in % day 20 ([1]; study 4, (1) 10 mg/kg PO daily days 11-20, 10 mg/kg) | Median ΔT/ΔC in % day 20 ([1]; study 4, (1) 20 mg/kg PO daily days 11-20, 20 mg/kg) | Median ΔT/ΔC in % day 21 ([2]; (1) 20 mg/kg PO daily days 11-21, 20 mg/kg)

COc1ccc(Cl)c(Nc2nc3ccccc3nc2NS(=O)(=O)c2cccc(NC(=O)C(C)(C)N)c2)c1 [Compound (2a), N-(3-{[(3-{[2-chloro-5-(methoxy)phenyl]amino}quinoxalin-2-yl)amino]sulfonyl}phenyl)-2-methylalaninamide]
> 40%: Median ΔT/ΔC in % day 18 ([1]; study 1, (2a) 50 mg/kg PO daily days 11-18) | Median ΔT/ΔC in % day 18 ([1]; study 1, (2a) 75 mg/kg PO daily days 11-18) | Median ΔT/ΔC in % day 18 ([1]; study 2, (2a) 50 mg/kg PO daily days 11-18) | Median ΔT/ΔC in % day 18 ([1]; study 2, (2a) 75 mg/kg PO daily days 11-18) | Median ΔT/ΔC in % day 20 ([1]; study 3, (2a) 50 mg/kg PO daily days 11-20) | Median ΔT/ΔC in % day 20 ([1]; study 3, (2a) 75 mg/kg PO daily days 11-20) | Median ΔT/ΔC in % day 50 [3]

CCn1c(=O)c(-c2ccn[nH]2)cc2c(C)nc(N)nc21 [Compound (2b), 2-amino-8-ethyl-4-methyl-6-(1H-pyrazol-5-yl)pyrido[2,3-d]pyrimidin-7(8H)-one]
> 40%: Median ΔT/ΔC in % day 18 ([1]; study 1, (2b) 30 mg/kg PO daily days 11-18) | Median ΔT/ΔC in % day 18 ([1]; study 2, (2b) 20 mg/kg PO daily days 11-18) | Median ΔT/ΔC in % day 21 ([2]; (2b) 20 mg/kg PO daily days 11-21)
